Measured values reported in PMC11963299.

The chains behind the UniProt entries cited, without tags or fusion partners.
UniProt O54791: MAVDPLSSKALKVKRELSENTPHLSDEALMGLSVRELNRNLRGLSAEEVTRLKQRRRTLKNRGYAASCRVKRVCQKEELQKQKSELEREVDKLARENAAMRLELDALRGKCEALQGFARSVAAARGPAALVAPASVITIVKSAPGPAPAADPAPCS
UniProt P97302: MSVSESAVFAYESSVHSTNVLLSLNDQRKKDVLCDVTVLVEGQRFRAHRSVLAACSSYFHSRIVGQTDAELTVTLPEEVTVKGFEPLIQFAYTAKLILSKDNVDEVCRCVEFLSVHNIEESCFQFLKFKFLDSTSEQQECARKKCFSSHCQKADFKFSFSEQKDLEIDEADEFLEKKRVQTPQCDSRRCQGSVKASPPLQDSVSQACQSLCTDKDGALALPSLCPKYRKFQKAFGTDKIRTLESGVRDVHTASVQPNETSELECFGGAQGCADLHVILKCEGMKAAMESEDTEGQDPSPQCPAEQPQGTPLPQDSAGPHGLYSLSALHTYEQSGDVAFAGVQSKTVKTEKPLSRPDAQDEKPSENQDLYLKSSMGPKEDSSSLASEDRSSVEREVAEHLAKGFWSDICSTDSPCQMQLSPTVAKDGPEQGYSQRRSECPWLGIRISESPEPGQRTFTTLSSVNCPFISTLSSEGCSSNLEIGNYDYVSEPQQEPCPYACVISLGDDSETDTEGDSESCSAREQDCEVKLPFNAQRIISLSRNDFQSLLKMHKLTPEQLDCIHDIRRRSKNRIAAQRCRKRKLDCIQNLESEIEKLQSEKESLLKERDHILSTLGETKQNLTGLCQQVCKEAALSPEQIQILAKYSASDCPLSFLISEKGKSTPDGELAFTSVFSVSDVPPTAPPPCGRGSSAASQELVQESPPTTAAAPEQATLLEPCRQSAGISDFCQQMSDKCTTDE

Biological target: v-maf musculoaponeurotic fibrosarcoma oncogene homolog F (MAFF) (mouse (endogenous in AML12 cells / hepatocytes)) (UniProt O54791)
Assay: affinity purification with mass spectrometry; IP with MAFF antibody or IgG (negative control) from hepatocytes (AML12 cells) after H/R; electrophoresis, Coomassie staining, mass spectrometry of IP-MAFF and IP-IgG

binding: binds
Substance: BTB and CNC homology 1 (BACH1) (from UniProt P97302 1-739)

No constants are given. Whether binding was seen depends on the method and setting. In cells and extracts the contact can be indirect. These calls come from enrichment with a bait or labelling near it, and not all partners need be listed.
